Source: article PMC6199744, “Development of Chemical Proteomics for the Folateome and Analysis of the Kinetoplastid Folateome” (ACS Infectious Diseases, 2018)
Several values for one entry are separate records, joined by “and”; a condition that tells them apart may be missing. Equal values may be shown once. Read-outs that look alike come from different tables or passages of the source. The source gives many values for each of these; only a part stands here.

Tested on: L. major lysate proteins
Test: Multitargeted bead mixture chemoproteomics, single concentration competition, proteome-wide
Type: binding

With Nc1nc2c(c(=O)[nH]1)N(C=O)C(CNc1ccc(C(=O)N[C@@H](CCC(=O)O)C(=O)O)cc1)CN2 (stereo partly drawn) [LEU, leucovorin] the fold change was 1.02 and 1.03 and 1.07 and 0.86, the fold change (protein LINJ.01.0790 […] 4A, PUTATIVE, vehicle control = 1) was 1.15 and the fold change (protein LINJ.03.0940 HYPOTHETICAL PROTEIN, CONSERVED, vehicle control = 1) was 0.82. It also gave a fold change (protein LINJ.05.0070 DYNEIN LIGHT CHAIN, PUTATIVE, vehicle control = 1) of 1.07, a fold change (protein LINJ.07.0210 CYTOCHROME C1, HEME PROTEIN, MITOCHONDRIAL PRECURSOR, PUTATIVE, vehicle control = 1) of 0.94 and a fold change (protein LINJ.09.0030 HYPOTHETICAL PROTEIN, CONSERVED, vehicle control = 1) of 0.99. For the same compound, the fold change (protein LINJ.09.1130 EUKARYOTIC TRANSLATION INITIATION FACTOR 2 SUBUNIT, PUTATIVE, vehicle control = 1) was 0.88, the fold change (protein LINJ.13.1460 ALPHA TUBULIN, vehicle control = 1) was 0.95 and the fold change (protein LINJ.15.0090 HEAT SHOCK PROTEIN HSLVU, ATPASE SUBUNIT HSLU, PUTATIVE, vehicle control = 1) was 1. The fold change (protein LINJ.19.0140 PROTEIN KINASE, PUTATIVE,MITOGEN-ACTIVATED PROTEIN KINASE, PUTATIVE, vehicle control = 1) was 0.82, the fold change (protein LINJ.19.0300 RNA BINDING PROTEIN, vehicle control = 1) was 1.08 and the fold change (protein LINJ.21.0900 HY[…], CONSERVED, vehicle control = 1) was 1.01. The fold change (protein LINJ.21.1790 40S RIBOSOMAL PROTEIN S11, PUTATIVE, vehicle control = 1) was 1.08, the fold change (protein LINJ.25.1460 GTP-BINDING PROTEIN, PUTATIVE, vehicle control = 1) was 1.05 and the fold change (protein LINJ.25.2170 HYPOTHETICAL PROTEIN, CONSERVED, vehicle control = 1) was 0.81. The fold change (protein LINJ.26.0840 40S RIBOSOMAL PROTEIN S16, PUTATIVE, vehicle control = 1) was 1.04, the fold change (protein LINJ.26.1080 HYPOTHETICAL PROTEIN, CONSERVED, vehicle control = 1) was 0.94 and the fold change (protein LINJ.27.1150 T-COMPLEX PROTEIN 1, BETA SUBUNIT, PUTATIVE, vehicle control = 1) was 1.03. For the same compound, the fold change (protein LINJ.28.1310 GLUCOSE-REGULATED PROTEIN 78, PUTATIVE, vehicle control = 1) was 1.08, the fold change (protein LINJ.29.0110 HYPOTHETICAL PROTEIN, CONSERVED, vehicle control = 1) was 0.9 and the fold change (protein LINJ.29.0770 P[…] SIGNAL TYPE 2 RECEPTOR, PUTATIVE, vehicle control = 1) was 1.05. It also gave a fold change (protein LINJ.32.2960 […]-ATP-ASE SUBUNIT, PUTATIVE, vehicle control = 1) of 0.78, a fold change (protein LINJ.32.3230 PROTEIN PHOSPHATASE 2A CATALYTIC SUBUNIT, PUTATIVE, vehicle control = 1) of 1.05 and a fold change (protein LINJ.33.0350 HEAT SHOCK PROTEIN 83-1, vehicle control = 1) of 1.06. The fold change (protein LINJ.36.2140 CHAPERONIN HSP60, MIT[…], vehicle control = 1) was 1.12, the fold change (protein LINJ.36.7350 CYTOCHROME C OXIDASE SUBUNIT I, vehicle control = 1) was 0.99 and the fold change (protein LMJF.02.0450 VOLTAGE-DEPENDENT ANION-SELECTIVE CHANNEL, PUTATIVE, vehicle control = 1) was 1.04. The fold change (protein LMJF.02.0460 HY[…], CONSERVED, vehicle control = 1) was 0.97, the fold change (protein LMJF.03.0630 HY[…], CONSERVED, vehicle control = 1) was 1.07 and the fold change (protein LMJF.05.0030 RAS-LIKE SMALL GTPASES, PUTATIVE, vehicle control = 1) was 0.96. It also gave a fold change (protein LMJF.06.0140 PROTEASOME BETA 6 SUBUNIT, PUTATIVE, vehicle control = 1) of 0.96, a fold change (protein LMJF.06.0880 ACYL-COENZYME A DEHYDROGENASE, PUTATIVE, vehicle control = 1) of 0.9 and a fold change (protein LMJF.07.0270 […] DEACETYLASE-LIKE PROTEIN, vehicle control = 1) of 0.97. For the same compound, the fold change (protein LMJF.07.0340 ATP-DEPENDENT DEAD/H RNA HELICASE, PUTATIVE, vehicle control = 1) was 1.05, the fold change (protein LMJF.07.0640 HY[…], CONSERVED, vehicle control = 1) was 1.08 and the fold change (protein LMJF.07.1050 CATION-TRANSPORTING ATPASE, PUTATIVE, vehicle control = 1) was 0.9. For the same compound, the fold change (protein LMJF.08.1110 STRESS-INDUCED PROTEIN STI1, vehicle control = 1) was 1.07, the fold change (protein LMJF.09.0970 […]-1 GAMMA, vehicle control = 1) was 1.11 and the fold change (protein LMJF.10.1010 NUCLEOSIDE PHOSPHORYLASE-LIKE PROTEIN, vehicle control = 1) was 1.13. For the same compound, the “fold change vs vehicle control” value (protein LMJF.10.1240 HYPOTHETICAL PROTEIN, CONSERVED) was 0.93, the fold change (protein LMJF.11.0220 PTERIN-4-ALPHA-CARBINOLAMINE DEHYDRATASE, PUTATIVE, vehicle control = 1) was 1.07 and the fold change (protein LMJF.11.0240 […] 7 SUBUNIT, PUTATIVE, vehicle control = 1) was 0.98. The fold change (protein LMJF.11.0350 14-3-3 PROTEIN, PUTATIVE, vehicle control = 1) was 1.05, the fold change (protein LMJF.11.0550 NUCLEOBASE TRANSPORTER, vehicle control = 1) was 1.06 and the fold change (protein LMJF.11.1000 PYRUVATE PHOSPHATE DIKINASE, PUTATIVE, vehicle control = 1) was 1.19. The fold change (protein LMJF.12.0280 ORNITHINE DECARBOXYLASE, PUTATIVE, vehicle control = 1) was 0.85, the fold change (protein LMJF.12.0670 […] OXIDASE SUBUNIT IV, vehicle control = 1) was 1.07 and the fold change (protein LMJF.12.1130 NADH:FLAVIN OXIDOREDUCTASE/NADH OXIDASE, PUTATIVE, vehicle control = 1) was 1.03. The fold change (protein LMJF.12.1270 ARGININE N-METHYLTRANSFERASE-LIKE PROTEIN, vehicle control = 1) was 0.92, the “fold change vs vehicle control” value (protein LMJF.13.0450 HYPOTHETICAL PROTEIN, CONSERVED) was 0.93 and the fold change (protein LMJF.13.0570 40S RIBOSOMAL PROTEIN S12, PUTATIVE, vehicle control = 1) was 1.15. It also gave a fold change (protein LMJF.13.0870 MIT[…] ALPHA SUBUNIT, PUTATIVE, vehicle control = 1) of 0.96, a fold change (protein LMJF.13.1190 ADENYLOSUCCINATE SYNTHETASE, PUTATIVE, vehicle control = 1) of 0.95 and a fold change (protein LMJF.13.1660 CHAPERONIN TCP20, PUTATIVE, vehicle control = 1) of 0.99. It also gave a fold change (protein LMJF.14.0190 HY[…], CONSERVED, vehicle control = 1) of 1.43, a fold change (protein LMJF.14.0460 CYSTATHIONINE BETA-LYASE-LIKE PROTEIN, vehicle control = 1) of 0.93 and a fold change (protein LMJF.14.0650 FATTY ACID ELONGASE, PUTATIVE, vehicle control = 1) of 0.96. The fold change (protein LMJF.15.0230 LYSYL-TRNA SYNTHETASE, PUTATIVE, vehicle control = 1) was 1.04, the fold change (protein LMJF.15.1160 TR[…], vehicle control = 1) was 1.06 and the fold change (protein LMJF.15.1440 GLUTAMINYL-TRNA SYNTHETASE, PUTATIVE, vehicle control = 1) was 1.03. The fold change (protein LMJF.16.0960 HY[…], CONSERVED (methyltransferase domain containing protein, putative), vehicle control = 1) was 1.11, the “fold change vs vehicle control” value (protein LMJF.16.1427 PARAFLAGELLAR ROD PROTEIN 2C) was 0.94 and the fold change (protein LMJF.17.0980 HYPOTHETICAL PROTEIN, CONSERVED (Mak10 subunit, NatC N(alpha)-terminal acetyltransferase, putative), vehicle control = 1) was 0.99. It also gave a fold change (protein LMJF.18.0450 SERINE CARBOXYPEPTIDASE (CBP1), PUTATIVE, vehicle control = 1) of 0.93, a fold change (protein LMJF.18.0510 ACONITASE, PUTATIVE, vehicle control = 1) of 1.09 and a fold change (protein LMJF.18.0740 ELONGATION FACTOR TU, PUTATIVE, vehicle control = 1) of 0.98.
